Results are given in words; binding and its absence hold for the method and conditions named. Some entries that bind do so weakly or less than the wild type. Where a sequence is shown, tags or fusion partners need not be part of it.
Target: T1, non-SUMOylated HA–KIF4A WT (SUMOylation mix without SUMO2) (human) (UniProt O95239)
T1 sequence: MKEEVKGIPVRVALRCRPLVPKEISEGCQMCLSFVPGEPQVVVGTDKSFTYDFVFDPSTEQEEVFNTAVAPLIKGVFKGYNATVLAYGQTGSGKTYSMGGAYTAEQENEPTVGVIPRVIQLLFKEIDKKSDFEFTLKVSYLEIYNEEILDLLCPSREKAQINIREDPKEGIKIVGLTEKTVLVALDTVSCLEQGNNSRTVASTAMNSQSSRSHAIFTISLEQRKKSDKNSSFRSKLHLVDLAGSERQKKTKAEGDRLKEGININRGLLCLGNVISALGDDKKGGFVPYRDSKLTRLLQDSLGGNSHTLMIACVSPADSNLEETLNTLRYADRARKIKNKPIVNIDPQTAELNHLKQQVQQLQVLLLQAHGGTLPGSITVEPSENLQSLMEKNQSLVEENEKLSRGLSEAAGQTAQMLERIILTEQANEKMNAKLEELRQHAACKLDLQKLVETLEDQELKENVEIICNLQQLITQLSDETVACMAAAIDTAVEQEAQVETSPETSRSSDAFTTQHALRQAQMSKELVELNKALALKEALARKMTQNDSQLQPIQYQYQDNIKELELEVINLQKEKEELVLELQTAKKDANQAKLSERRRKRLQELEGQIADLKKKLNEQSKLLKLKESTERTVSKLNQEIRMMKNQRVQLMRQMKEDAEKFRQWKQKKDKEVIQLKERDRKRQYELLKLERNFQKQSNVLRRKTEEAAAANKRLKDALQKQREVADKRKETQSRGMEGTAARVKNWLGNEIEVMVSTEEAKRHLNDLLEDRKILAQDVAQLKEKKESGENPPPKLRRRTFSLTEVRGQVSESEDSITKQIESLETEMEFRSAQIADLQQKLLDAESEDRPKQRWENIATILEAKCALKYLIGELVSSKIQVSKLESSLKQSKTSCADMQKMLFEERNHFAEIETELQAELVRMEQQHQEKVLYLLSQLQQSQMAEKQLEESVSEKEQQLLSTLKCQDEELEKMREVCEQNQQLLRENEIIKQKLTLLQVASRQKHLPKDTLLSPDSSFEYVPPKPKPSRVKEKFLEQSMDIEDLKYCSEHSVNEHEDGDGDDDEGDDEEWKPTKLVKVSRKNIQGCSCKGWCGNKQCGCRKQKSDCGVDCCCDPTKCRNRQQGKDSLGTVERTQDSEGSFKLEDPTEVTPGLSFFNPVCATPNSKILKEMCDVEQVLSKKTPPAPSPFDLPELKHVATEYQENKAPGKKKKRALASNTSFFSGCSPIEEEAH
Assay: pull-down; HA–KIF4A WT from U2OS held on anti-HA affinity gel, in vitro SUMOylated on the beads (or SUMO2 omitted), washed, incubated with 1 µg recombinant GST–STMN1 WT for 2 h at 4°C, washed in 50 mM Tris-HCl pH 7.5, 5 mM MgCl2, 150 mM NaCl, 0.5% Triton X-100, eluted with HA-peptide; immunoblot against STMN1 and the HA tag; both purified

B1: recombinant GST–STMN1 WT (protein, UniProt P16949 1-149)
chain: MASSDIQVKELEKRASGQAFELILSPRSKESVPEFPLSPPKKKDLSLEEIQKKLEAAEERRKSHEAEVLKQLAEKREHEKEVLQKAIEENNNFSKMAEEKLTHKMEANKENREAQMAAKLERLREKDKHIEEVRKNKESKDPADETEAD
binding: binds
